In PubChem BioAssay AID485353 (National Center for Advancing Translational Sciences (NCATS), 2010):
About 610 (0.18%) of roughly 330,000 compounds were called active. Inconclusive results, whose numbers are uncertain, are shown with a selection of clear calls. Calls follow the shape of the full dose curve. A potency beside an inconclusive call is a rough fit, not a confirmed value.

assay: qHTS of Yeast-based Assay for SARS-CoV PLP; also: nearly all actives have a fitted effect of over 55% in size; as to activity, positive = growth rescue: 0% is about no effect; details: S. cerevisiae expressing SARS-CoV PLpro; Potency: growth rescue; activity, positive = growth rescue: at 32.9 µM (top of the series)
Potency is read from the fitted curve at half-maximal effect.

Structure (SMILES)	activity, positive = growth rescue	Potency
Cc1cc[n+]2cc(-c3cccc([N+](=O)[O-])c3)c(-c3cccc([N+](=O)[O-])c3)cc2c1	inactive: 3.99%	
CC1(C)Cc2c(cnn2-c2cccc(F)c2)C(NC(=O)CN2CCCC2=O)C1 (stereo not given)	inactive: -1.56%	
CC1=CCC2C(=O)N(c3ccc(C)c(Br)c3)C(=O)C2C1 (stereo not given)		inconclusive: 20 µM [activator, single point]
C=C(C)CNC(=S)N/N=C(\C)c1ccc(Cl)s1		inconclusive: 3.16 µM [activator, partial curve]
CC(C)CC(=O)Nc1ccc(C(=O)Cn2nc(C(=O)O)c3ccccc3c2=O)cc1		active: 12.6 µM
O=C(c1ccccc1C(=O)N1CCN(c2ccc(F)cc2)CC1)N1CCN(c2ccc(F)cc2)CC1		inconclusive: 11.2 µM [activator, partial curve]
Cc1nn(CCCNC(=O)C2CCCO2)cc1Br (stereo not given)		inconclusive: 20 µM [activator, single point]
Cc1nnc(SCc2c(Cl)cccc2Cl)s1	inactive: 9.08%	
N#CCCn1c2ccccc2c2nc3ccccc3nc21		inconclusive: 20 µM [activator, single point]
COc1ccc(OCCCC(=O)NCCc2nc3ccccc3[nH]2)cc1	inactive: -1.11%	
CC(C)(C)c1ccc2c(c1)OC(C(=O)N/N=C\c1ccccn1)CO2 (stereo not given)		inconclusive: 22.4 µM [activator, single point]
COc1ccc(Cn2c(O)c(/C=N/NC(=O)c3ccccc3)c(=O)[nH]c2=O)cc1		active: 10 µM
CCSc1nnc(NC(NC(=O)c2ccco2)(C(F)(F)F)C(F)(F)F)s1		inconclusive: 3.16 µM [activator, partial curve]
CC1CCN(Cc2c(C(=O)N/N=C/c3cc(Cl)ccc3O)nnn2-c2nonc2N)CC1		inconclusive: 3.55 µM [activator, single point]
COc1ccc(/C=C(\C#N)C(=O)OCC(=O)NCc2ccc(Cl)cc2)cc1		inconclusive: 3.55 µM [activator, single point]
O=C(O)CN1C(=O)c2ccc(Oc3ccc4c(c3)C(=O)N(CC(=O)O)C4=O)cc2C1=O	inactive: 0.433%	
CS(=O)(=O)N1CCc2ccccc2C1		inconclusive: 2 µM [activator, partial curve, poor fit]
O=C(c1ccc(Br)s1)N1CCc2ccccc2C1		inconclusive: 4.47 µM [activator, single point]
CS(=O)(=O)N1CCN=C1SCc1cccc(F)c1	inactive: -3.45%	
CCOc1ccc(N2C(=O)c3ccccc3NC2(C)CC)cc1 (stereo not given)	inactive: -1.69%	
CC(C)CC(=O)N=C1SC2CS(=O)(=O)CC2N1CCc1ccccc1 (stereo not given)		inconclusive: 22.4 µM [activator, single point]
CC(/C=C/c1ccco1)=N/NC(=O)Cc1cccs1		inconclusive: 11.2 µM [activator, single point]
CCOC(=O)N1CCN(C(=O)C2CCN(S(=O)(=O)N(CC)CC)CC2)CC1		inconclusive: 4.47 µM [activator, single point]

Structure (SMILES)	activity, positive = growth rescue	Potency
Nc1cc(=O)nc(SCC(=O)N2CCN(c3ccccc3)CC2)n1-c1ccccc1		inconclusive: 20 µM [activator, single point]
CC(C)(C)OC(=O)C[C@@H]1C/C=C\C[C@@H](CC(=O)N[C@@H](CO)Cc2ccccc2)C(=O)NCCOC1=O	inactive: 0.373%	
CCN(CC)c1ccc(/C=N/Nc2nc3ccccc3[nH]2)c(O)c1		active: 10 µM
CCN(Cc1ccccc1)S(=O)(=O)c1ccc(C(=O)Nc2nnc(C3CC3)o2)cc1		inconclusive: 2.82 µM [activator, partial curve, poor fit]
O=C1CC(c2ccccc2)CC(=O)C1Sc1ccc(Cl)cc1 (stereo not given)		inconclusive: 2.24 µM [activator, partial curve]
O=C(c1ccco1)N1CCN(Cc2nnc(-c3ccccc3)o2)CC1		inconclusive: 2 µM [activator, full curve]
COc1cccc(NC(=O)CN(C)C(=O)c2cc(C)oc2C)c1	inactive: -14.7%	
COc1ccccc1C(=O)NC(=O)COC(=O)/C(=C/c1ccccc1)NC(C)=O		inconclusive: 4.47 µM [activator, single point]
Cc1sc2nc(CSCC(=O)N(C)c3ccccc3)[nH]c(=O)c2c1C		inconclusive: 20 µM [activator, single point]
O=C(C(Cc1ccccc1)N1C(=O)C2C3C=CC(C3)C2C1=O)N1CCCCC1 (stereo not given)		inconclusive: 3.98 µM [activator, single point]
Cc1ccc(Sc2ccc(CN3CCCCC3)cc2[N+](=O)[O-])cc1	inactive: -0.503%	
CC1CCN(C(=O)CCc2nnc(-c3ccccc3)o2)CC1		inconclusive: 3.98 µM [activator, single point]
N#C/C(=C\Nc1ccccc1SC(F)(F)F)c1nc(-c2ccc(F)cc2)cs1	inactive: -1.08%	
COC(=O)c1cn(-c2ccccc2)nc1-c1ccc(OC)c(OC)c1	inactive: -1.8%	
C=C(C)C1CC=C(C)/C(=N/NC(=O)COc2ccc(Cl)cc2)C1 (stereo not given)		inconclusive: 4.47 µM [activator, single point]
CCCCc1ccc(NC(=S)NCc2cccnc2)cc1		inconclusive: 12.6 µM [activator, partial curve]
COc1cccc(-c2csc(N3CCN(Cc4ccccc4)CC3)n2)c1		inconclusive: 3.55 µM [activator, single point]
COc1ccc2cc(C(C)c3nc4ccccc4c(=O)n3N)ccc2c1 (stereo not given)		inconclusive: 4.47 µM [activator, single point]
Cc1ccc(NC(=O)CSc2ncccc2C(=O)Oc2cccc([N+](=O)[O-])c2)cc1Cl		inconclusive: 3.98 µM [activator, single point]
CC(C)NC(=O)c1onc(CSc2cccc(Cl)c2)c1C(=O)O		inconclusive: 0.355 µM [activator, partial curve, poor fit]
Cc1ccc(N(C(=O)C2COc3ccccc3O2)C(C(=O)NC2CCCCC2)c2cn(C)nc2C)cc1 (stereo not given)		inconclusive: 1.12 µM [activator, partial curve]
Cc1cccc(N2C(=O)NC(=O)/C(=C/c3ccc([N+](=O)[O-])o3)C2=O)c1		inconclusive: 2 µM [activator, partial curve]

Full records from above.
`Cc1ccc(NC(=O)CSc2ncccc2C(=O)Oc2cccc([N+](=O)[O-])c2)cc1Cl` in the list: Potency: inconclusive: 3.98 µM [activator, single point]
`COc1ccc(/C=C(\C#N)C(=O)OCC(=O)NCc2ccc(Cl)cc2)cc1` in the list: Potency: inconclusive: 3.55 µM [activator, single point]
